According to patent US12295970B2, “Imidazoquinoline compounds and prodrugs thereof” (UNIVERSITY OF KANSAS, priority 2019, dated 2025):
Some of these results come from one statement about several compounds together.

How the values were obtained:
hTLR8 = molecular target: T1, hTLR8 (Homo sapiens, UniProt Q9NR97); assay: SEAP reporter assay for hTLR-8 activity (HEK-Blue hTLR8 cells); type: cell-based; conditions: up to
T1 construct: host or cells: HEK293 (HEK-Blue hTLR8)
T1 sequence (Q9NR97 27-1041): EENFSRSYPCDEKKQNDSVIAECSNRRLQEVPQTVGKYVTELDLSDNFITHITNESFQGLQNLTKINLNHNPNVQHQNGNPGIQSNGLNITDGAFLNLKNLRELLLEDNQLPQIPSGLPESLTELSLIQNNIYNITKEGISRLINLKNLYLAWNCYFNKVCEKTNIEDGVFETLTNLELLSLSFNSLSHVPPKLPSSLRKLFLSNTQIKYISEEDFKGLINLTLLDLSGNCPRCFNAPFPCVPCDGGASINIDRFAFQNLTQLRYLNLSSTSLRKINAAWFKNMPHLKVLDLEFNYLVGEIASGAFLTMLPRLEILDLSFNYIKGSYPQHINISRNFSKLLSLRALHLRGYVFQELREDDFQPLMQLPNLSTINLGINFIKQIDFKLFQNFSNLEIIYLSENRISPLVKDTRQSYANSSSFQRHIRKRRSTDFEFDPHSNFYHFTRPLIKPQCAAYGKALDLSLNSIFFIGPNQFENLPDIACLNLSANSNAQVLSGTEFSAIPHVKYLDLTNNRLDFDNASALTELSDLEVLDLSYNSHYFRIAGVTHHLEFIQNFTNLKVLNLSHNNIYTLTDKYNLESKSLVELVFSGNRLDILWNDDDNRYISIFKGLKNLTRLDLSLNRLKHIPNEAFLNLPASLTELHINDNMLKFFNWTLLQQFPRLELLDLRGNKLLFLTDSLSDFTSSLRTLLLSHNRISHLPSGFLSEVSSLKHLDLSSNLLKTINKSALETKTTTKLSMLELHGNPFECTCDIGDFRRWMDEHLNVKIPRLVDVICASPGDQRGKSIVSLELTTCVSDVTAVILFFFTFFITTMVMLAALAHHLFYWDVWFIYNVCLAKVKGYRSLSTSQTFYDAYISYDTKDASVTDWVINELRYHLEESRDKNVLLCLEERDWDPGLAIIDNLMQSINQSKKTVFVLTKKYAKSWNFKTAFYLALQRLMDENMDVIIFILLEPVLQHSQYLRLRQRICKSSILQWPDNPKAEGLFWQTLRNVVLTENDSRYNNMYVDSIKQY
Experimental: (§1) TLR activation induces NF-κB production and subsequent SEAP secretion, which is measured using HEK-Detection media (InvivoGen) containing a colorimetric substrate for SEAP (UV-Vis, 637 nm).
(§2) The experiments followed manufacturer protocol as follows: SEAP levels were measured via absorbance at 637 nm using HEK-Blue Detection cell culture medium (InvivoGen), which contains a SEAP-specific colorimetric substrate. Compound stock solutions were first diluted in sterile DMSO at a concentration of 10 mM. Lower concentrations were prepared by serial dilution of the initial 10 mM stock samples into sterile DMSO and these solutions (22 μL) were subsequently diluted into sterile H2O (198 μL) using a BioTek Precision XS pipetting system. HEK-Blue hTLR7, HEK-Blue hTLR8, Null 1−k, and Null 1 cell suspensions in sterile HEK-Blue Detection medium were prepared at a density of 220,000 cells per mL. Clear bottom, 96-well tissue culture treated plates (Corning) were seeded with hTLR7 and Null 1−k or hTLR8 and Null 1 cell suspensions (180 μL/well), after which 20 μL of the various sample concentrations in 10% v/v DMSO/H2O were added (20 μL) in quadruplicate wells to yield the desired testing concentration in 1% v/v DMSO cell suspension. Plates were incubated at 37° C. and 5% CO2 in the dark. Absorbance measurements were taken at 637 nm at 12 hours, 4 replicates per concentration point, per cell line (hTLR7, hTLR8, Null 1−k, Null 1). Three independent measurements on different days were performed for each analog.
Corresponding well absorbance values for each concentration tested were averaged with respect to days tested, and the average relative NF-κB induction (UV-Vis, 637 nm) of the null cell lines (Null 1-k or Null 1) were subtracted from the respective average TLR expressing cell line (hTLR7 or hTLR8) absorbance averages. […]

hTLR7 = molecular target: T2, hTLR7 (Homo sapiens, UniProt Q9NYK1); assay: SEAP reporter assay for hTLR-7 activity (HEK-Blue hTLR7 cells); type: cell-based; conditions: up to
T2 construct: host or cells: HEK293 (HEK-Blue hTLR7)
T2 sequence (Q9NYK1 27-1049): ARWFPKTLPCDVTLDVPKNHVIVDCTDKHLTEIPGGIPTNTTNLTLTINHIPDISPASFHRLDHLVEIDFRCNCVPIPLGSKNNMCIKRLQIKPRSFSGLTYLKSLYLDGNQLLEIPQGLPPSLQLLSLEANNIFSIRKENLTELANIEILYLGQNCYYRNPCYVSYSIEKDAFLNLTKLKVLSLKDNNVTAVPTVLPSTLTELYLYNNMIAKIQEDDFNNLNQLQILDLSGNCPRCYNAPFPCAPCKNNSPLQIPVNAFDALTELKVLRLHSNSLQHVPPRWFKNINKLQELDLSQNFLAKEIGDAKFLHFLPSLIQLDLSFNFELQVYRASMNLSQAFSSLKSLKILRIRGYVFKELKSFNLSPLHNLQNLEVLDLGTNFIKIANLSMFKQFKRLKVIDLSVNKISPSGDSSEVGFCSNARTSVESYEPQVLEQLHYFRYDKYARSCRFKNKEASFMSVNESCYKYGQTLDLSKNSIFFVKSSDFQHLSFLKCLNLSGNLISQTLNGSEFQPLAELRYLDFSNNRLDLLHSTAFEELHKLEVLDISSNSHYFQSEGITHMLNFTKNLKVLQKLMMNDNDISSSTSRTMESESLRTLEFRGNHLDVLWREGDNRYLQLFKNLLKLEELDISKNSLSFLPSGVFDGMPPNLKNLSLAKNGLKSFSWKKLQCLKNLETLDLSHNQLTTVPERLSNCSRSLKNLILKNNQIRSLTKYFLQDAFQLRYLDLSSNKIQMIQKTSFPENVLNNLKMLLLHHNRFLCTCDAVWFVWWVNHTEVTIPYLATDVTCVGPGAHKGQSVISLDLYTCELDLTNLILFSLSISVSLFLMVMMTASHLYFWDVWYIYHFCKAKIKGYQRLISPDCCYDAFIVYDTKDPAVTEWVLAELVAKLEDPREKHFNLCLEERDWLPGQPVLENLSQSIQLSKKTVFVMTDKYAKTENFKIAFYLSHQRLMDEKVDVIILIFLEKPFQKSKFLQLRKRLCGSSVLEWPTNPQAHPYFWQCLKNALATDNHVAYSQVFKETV
Experimental: as §1, §2
Corresponding well absorbance values for each concentration tested were averaged with respect to days tested, and the average relative NF-κB induction (UV-Vis, 637 nm) of the null cell lines (Null 1-k or Null 1) were subtracted from the respective average TLR expressing cell line (hTLR7 or hTLR8) absorbance averages. […] The three independent, normalized averages for each analog were then pooled, and the data was fit using the Hill-Slope model (GraphPad Prism v7.0) using the non-linear fit from the [Agonist] vs. response—Variable Slope (four parameters) with a hill slope constrained to less than 3.

Structure (SMILES)	more active than resiquimod for TLR8 (hTLR8)	more active than imiquimod for TLR7 (hTLR7)	more active than resiquimod for TLR7 (hTLR7) [fold]
CCCCc1nc2c(N)nc3cc(Cl)ccc3c2n1CC(C)(C)O [Compound 8, 4-Amino-2-butyl-7-chloro-1-(2-hydroxy-2-methylpropyl)-1H-imidazo[4,5-c]quinoline]	up to 4 fold	up to 100 fold	≤ 2
CCCCc1nc2c(N)nc3cc(OC)ccc3c2n1CC(C)(C)O [Compound 5, 4-Amino-2-butyl-1-(2-hydroxy-2-methylpropyl)-7-methoxy-1H-imidazo[4,5-c]quinoline]	up to 4 fold	up to 100 fold	≤ 2
CCCCc1nc2c(N)nc3cc(O)ccc3c2n1CC(C)C [Compound 14, 4-Amino-2-butyl-7-hydroxy-1-(2-methylpropyl)-1H-imidazo[4,5-c]quinoline]	up to 4 fold	up to 100 fold	≤ 2
